{"source": "patent US4071510", "about": "(dated 1978)"}
{"experiment": "general procedure: solution-phase peptide synthesis; azide method (isoamyl nitrite/HCl); N,N'-dicyclohexylcarbodiimide with N-hydroxy", "conditions": "coupling step, of the theoretical amount, acetate", "units": {"step yield": "%"}}
{"substance": "Cbz--Glu (OBu^t)--His--Phe--Arg--Trp--Gly--Lys(Boc)--Pro--Val--Gly--OH (I)", "step yield": 75}
{"substance": "BOC--D--Ser--Met--Glu (γ--OBu^t)--His--Phe--Arg--Trp--Gly--Lys(BOC)--Pro--Val--Gly--OH(I)", "step yield": 78}
{"substance": "BOC--D--Ser--Met--Glu--(γ--OBu^t)--His--Phe--Arg--Trp--Gly--Lys- -Pro--Val--Gly--Lys(BOC)--Lys(BOC)--Lys(BOC)--Lys(BOC)--NH2. HCl (II)", "step yield": 87}
